Results deposited as PubChem BioAssay AID504791 (Drosophila RNAi Screening Center, 2011)
The screen tested about 23,000 reagents; this is an unselected part of those that have a named target and a result. In the full data, 199 (0.86%) got an active call. 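Plate-scaled ratios behind the calls are not deposited; printed light signals are raw; many rows marked increased or decreased are still called inactive.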 A plus sign joins genes that one reagent is predicted to hit. Reagent sequences are not shown. The record does not give: the direction of the score.

Test: 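Factors in Argonaute-based small RNA production and activity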 (primary screen)
Cell system: Drosophila S2-derived reporter cells
Reagents: long dsRNA against Drosophila genes, about 150-250 ng dsRNA per well (siRNA assay); about 80-120 ng (miRNA assay)
Time to read-out: about 5 days (siRNA assay); about 4 days (miRNA assay)
Challenge: copper sulfate induction of reporters: 25 µM (siRNA assay); 200 mM stated (miRNA assay), 1-2 days before reading
Measurement: 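Dual luciferase assay: Renilla to firefly signal ratio in each well, scaled to the mean ratio of its plate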
Hit rule: 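First-pass picks had plate-scaled ratios over 1.5 for the siRNA assay, over 1.6 for the miRNA assay, or under 0.6; two distinct dsRNAs had to score alike on retest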

The opening 6 records as a preview:
no.	target	DRSC id	stable siRNA reporter change	stable assay Renilla, run 1 (luminescence)	stable assay firefly, run 1 (luminescence)	outcome
1	CG32037	DRSC10363		5784	3.28e5	inactive
2	SmydA-6 (SET and MYND domain containing, arthropod-specific, member 6)	DRSC07341		6652	3.00e5	inactive
3	CG6144	DRSC02934		5675	6.03e5	inactive
4	CG4763	DRSC04009		5063	4.94e5	inactive
5	CG4763	DRSC04487		7295	4.41e5	inactive
6	CG8858	DRSC07290		6998	4.32e5	inactive

The listing, from the start:
no.	target	DRSC id	stable siRNA reporter change	stable assay Renilla, run 1 (luminescence)	stable assay firefly, run 1 (luminescence)	outcome
1	CG32037	DRSC10363		5784	3.28e5	inactive
2	SmydA-6 (SET and MYND domain containing, arthropod-specific, member 6)	DRSC07341		6652	3.00e5	inactive
3	CG6144	DRSC02934		5675	6.03e5	inactive
4	CG4763	DRSC04009		5063	4.94e5	inactive
5	CG4763	DRSC04487		7295	4.41e5	inactive
6	CG8858	DRSC07290		6998	4.32e5	inactive
7	Klp67A + CG34456	DRSC10420		7286	6.80e5	inactive
8	CG7384	DRSC03053		7835	6.81e5	inactive
9	CG30412	DRSC04564		42814	1.13e6	inactive
10	CG10418	DRSC09720		6808	5.03e5	inactive
11	TwdlW (TweedleW)	DRSC15540		6870	3.23e5	inactive
12	RhoGAP100F (Rho GTPase activating protein at 100F)	DRSC15409		6926	4.74e5	inactive
13	CCKLR-17D3 (Cholecystokinin-like receptor at 17D3)	DRSC20015		6054	4.90e5	inactive
14	CCKLR-17D3 (Cholecystokinin-like receptor at 17D3)	DRSC20017		6563	5.35e5	inactive
15	cdi (center divider)	DRSC16922		8140	3.12e5	inactive
16	CycC (Cyclin C)	DRSC16619		6818	4.27e5	inactive
17	CG9498	DRSC03235		7851	4.59e5	inactive
18	galla-1	DRSC05987		5751	2.93e5	inactive
19	CG30356	DRSC05119		5055	4.90e5	inactive
20	CG6931	DRSC10750		7346	3.30e5	inactive
21	Fbxo42 (F-box protein 42)	DRSC04529		7486	7.46e5	inactive
22	CG4069	DRSC10396		9923	4.11e5	inactive
23	CG13028	DRSC09908		6460	3.16e5	inactive
24	CG15083	DRSC06514		6207	3.97e5	inactive
25	CG16852	DRSC01876		7143	3.23e5	inactive
26	HmgD (High mobility group protein D)	DRSC04619		6931	1.16e6	inactive
27	Tsp42Eo (Tetraspanin 42Eo)	DRSC06184		7922	4.43e5	inactive
28	CG13992	DRSC02324		6186	3.15e5	inactive
29	CG18302	DRSC02663		7440	3.75e5	inactive
30	Dcr-2 (Dicer-2)	DRSC06992	reporter ratio raised past the hit cutoff	13630	4.28e5	active
31	CG9500	DRSC03237		9317	5.47e5	inactive
32	CG7102	DRSC02647		22213	1.67e5	inactive
33	CG7102	DRSC03007		6703	4.54e5	inactive
34	Cdk4 (Cyclin-dependent kinase 4)	DRSC07358		7094	3.17e5	inactive
35	heix (heixuedian)	DRSC03542		9763	1.44e6	inactive
36	CG31870	DRSC21681		9623	6.05e5	inactive
37	CG16775	DRSC10225		7763	4.62e5	inactive
38	U2A	DRSC06445	reporter ratio lowered past the hit cutoff	5163	6.44e5	active
39	CG11902	DRSC14434		4267	4.31e5	inactive
40	CG34041	DRSC22276		8134	5.22e5	inactive
41	CG5742	DRSC06949		7574	2.75e5	inactive
42	Cad88C (Cadherin 88C)	DRSC15486		8115	5.09e5	inactive
43	CG14190	DRSC19545		5930	3.95e5	inactive
44	mino (minotaur)	DRSC14132		6887	3.50e5	inactive
45	CG5846	DRSC02904		7418	2.20e5	inactive
46	CG1075 (retired record)	DRSC12144		6246	3.65e5	inactive
47	CG17672	DRSC09230		2792	2.08e5	inactive
48	CG17672	DRSC10278		7822	5.04e5	inactive
49	Ugt35D1 (UDP-glycosyltransferase family 35 member D1)	DRSC15107		6530	5.15e5	inactive
50	CG3611	DRSC04395		5911	3.62e5	inactive
51	CG13603	DRSC14606		8053	4.80e5	inactive
52	Phf7 (PHD finger protein 7)	DRSC20692		6699	3.81e5	inactive
53	AMPdeam (AMP deaminase)	DRSC18996		2888	2.73e5	inactive
54	AMPdeam (AMP deaminase)	DRSC19366		7822	5.83e5	inactive
55	AMPdeam (AMP deaminase)	DRSC19368		6307	5.53e5	inactive
56	AMPdeam (AMP deaminase)	DRSC19727		6614	6.33e5	inactive
57	Fib (Fibrillarin)	DRSC04614		4627	3.53e5	inactive
